From patent US20240302379A1, “METHODS FOR IDENTIFYING AND MONITORING INTERACTIONS OF PROTEIN WITH LIGAND” (Agency for Science, Technology and Research, priority 2020, published 2024)
Entries after “also recorded” stand apart in the source; their conditions may differ. At least one compound was matched to its structure with a doubt left.

What was measured:
DHFR-HiBiT = target: T1, DHFR-HiBiT (Homo sapiens, UniProt P00374); test: UCEP-Screen in HEK293 DHFR-HiBiT reporter cells (bioluminescence); format: binding; conditions: 20 μM, 10 minutes
T1 construct: expressed in transfected cells; host or cells: Flp-In T-Rex HEK293
T1 sequence (P00374 1-187): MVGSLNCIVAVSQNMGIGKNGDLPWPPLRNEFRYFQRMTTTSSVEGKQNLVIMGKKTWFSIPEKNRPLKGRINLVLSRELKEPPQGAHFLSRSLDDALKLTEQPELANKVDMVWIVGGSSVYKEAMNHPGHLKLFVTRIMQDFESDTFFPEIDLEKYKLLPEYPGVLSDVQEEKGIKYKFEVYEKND

K562 living cells = test: UCEP-ID MR experiment (proteome-wide target deconvolution by quantitative LC-MS/MS); conditions: K562, 10 μM, 10 minutes

SMILES: Cc1[nH]c2ccccc2c1CCNCc1ccc(/C=C/C(=O)NO)cc1 [panobinostat]
- DHFR-HiBiT protein stabilization upon UCEP (DHFR-HiBiT): did not significantly change

SMILES: Cc1nc(Nc2ncc(C(=O)Nc3c(C)cccc3Cl)s2)cc(N2CCN(CCO)CC2)n1 [dasatinib]
- Binding targets identified by UCEP-ID (K562 living cells): ABL kinase and BTK kinase; also recorded: YES1 and MAPK14 kinases; also recorded: ABL and BTK kinases
